{"sequences": {"note": "By UniProt entry, the sequences of proteins in these tests, tags left out. Where a name states a change or a piece, a line headed by the entry shows the natural chain unless it says otherwise.", "UniProt Q5T0T0": "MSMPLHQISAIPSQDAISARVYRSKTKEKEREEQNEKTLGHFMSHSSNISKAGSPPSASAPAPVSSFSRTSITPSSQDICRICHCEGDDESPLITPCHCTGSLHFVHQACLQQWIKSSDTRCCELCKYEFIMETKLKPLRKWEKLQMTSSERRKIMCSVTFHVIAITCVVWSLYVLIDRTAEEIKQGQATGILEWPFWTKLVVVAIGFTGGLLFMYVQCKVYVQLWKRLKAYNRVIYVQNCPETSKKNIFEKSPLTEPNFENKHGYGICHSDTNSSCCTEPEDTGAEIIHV"}, "source": "paper PMC12084374", "target": "T1, sterol regulatory element binding protein 1 (SREBP1) (human (endogenous in Huh7 and PLC)) (UniProt P36956)", "T1 sequence": "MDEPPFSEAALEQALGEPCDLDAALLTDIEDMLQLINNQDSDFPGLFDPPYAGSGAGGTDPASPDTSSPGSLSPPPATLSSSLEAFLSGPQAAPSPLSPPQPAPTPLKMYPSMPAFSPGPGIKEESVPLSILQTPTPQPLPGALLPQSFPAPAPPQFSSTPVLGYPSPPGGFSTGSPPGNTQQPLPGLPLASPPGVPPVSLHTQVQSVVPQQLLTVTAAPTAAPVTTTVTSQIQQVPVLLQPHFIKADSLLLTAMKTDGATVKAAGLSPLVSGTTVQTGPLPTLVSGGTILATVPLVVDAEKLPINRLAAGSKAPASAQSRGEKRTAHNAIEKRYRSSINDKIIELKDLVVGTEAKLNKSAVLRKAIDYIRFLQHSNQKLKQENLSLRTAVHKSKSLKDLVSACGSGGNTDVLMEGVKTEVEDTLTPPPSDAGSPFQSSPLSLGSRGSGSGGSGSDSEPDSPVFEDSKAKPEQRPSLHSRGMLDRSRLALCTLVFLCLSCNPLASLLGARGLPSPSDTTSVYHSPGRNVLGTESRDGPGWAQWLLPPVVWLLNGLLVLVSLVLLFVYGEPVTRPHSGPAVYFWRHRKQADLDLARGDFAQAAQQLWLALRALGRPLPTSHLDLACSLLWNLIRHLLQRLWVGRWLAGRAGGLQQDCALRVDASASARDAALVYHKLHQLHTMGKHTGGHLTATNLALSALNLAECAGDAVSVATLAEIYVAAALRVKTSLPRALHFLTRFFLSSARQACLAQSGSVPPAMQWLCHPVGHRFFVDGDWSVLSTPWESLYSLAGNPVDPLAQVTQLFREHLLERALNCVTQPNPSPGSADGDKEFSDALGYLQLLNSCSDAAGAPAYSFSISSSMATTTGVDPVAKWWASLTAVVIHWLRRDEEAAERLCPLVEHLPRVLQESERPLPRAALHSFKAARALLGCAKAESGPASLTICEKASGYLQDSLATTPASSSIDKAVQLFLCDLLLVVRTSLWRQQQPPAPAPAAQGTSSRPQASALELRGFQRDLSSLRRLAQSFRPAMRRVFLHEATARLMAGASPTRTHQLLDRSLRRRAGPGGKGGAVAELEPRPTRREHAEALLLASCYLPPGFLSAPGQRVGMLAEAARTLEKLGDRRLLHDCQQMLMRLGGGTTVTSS", "assay": "co-IP; co-IP of domain-deletion mutants of MARCH8 or SREBP1 in Huh7 and PLC cells, Western blot", "note": "These are yes or no findings as the source states them, for the method shown. Binding seen in cells or lysates may run through a third protein. Binding can be weak; no strength is given.", "data": [{"substance": "truncated mutant of MARCH8 lacking the TR2 domain (from UniProt Q5T0T0) (enzyme)", "values": [{"measurement": "binding", "value": "binds"}]}]}
